The experiment relates to HCoV-229E. Also noted: species or system Huh-7; HTS, protection from HCoV-229E induced cell death, luminescent cell viability (CellCounting-Lite 2.0), inhibition rate. To be noted: 24 h post infection, 1 h compound pre-incubation, 10 µM, inhibitor.

Structures can show the parent of a compound that is named as a salt. Where two headings read alike, the source gives them in different places. Hit rate of the full screen: of about 3,300 compounds, about 95 (3%) showed an effect of 50% or more. The list shows a part of the results.

Take `OC[C@H]1O[C@H](OC[C@H]2O[C@H](O[C@H]3[C@H](O)[C@@H](O)[C@@H](O)O[C@@H]3CO)[C@H](O)[C@@H](O)[C@@H]2O[C@H]2O[C@H](CO)[C@@H](O)[C@H](O)[C@H]2O)[C@H](O)[C@@H](O)[C@@H]1O` [Glycogen, Oysters]: the “229E Inhibition rate” value was 5%.

On to `COc1cc(/C=C/C(=O)O[C@@H]2C[C@@](O)(C(=O)O)C[C@@H](O)[C@@H]2O)ccc1O` [3-Feruloylquinic acid], for which the “229E Inhibition rate” value amounted to 12.8%.

As for `C[C@@H]1CC[C@@]2(OC1)O[C@H]1C[C@H]3[C@@H]4CC=C5C[C@@H](O)C[C@@H](O)[C@]5(C)[C@H]4CC[C@]3(C)[C@H]1[C@@H]2C` [Ruscogenin], the “229E Inhibition rate” value was found to be 35.6%.

Consider `COc1ccc2c(=O)cc(-c3ccccc3)oc2c1` [7-Methoxyflavone], for which the “229E Inhibition rate” value is listed as 36.2%.

Regarding `O=C(CC(=O)c1ccccc1)c1ccccc1` [DBM, dibenzoylmethane], the “229E Inhibition rate” value is given as 28.7%.

On to `CC(=O)OCCc1ccc(O)c(O)c1` [Hydroxytyrosol acetate], for which the “229E Inhibition rate” value is recorded as 11.3%.

For the molecule `CC(C)=CCc1c2ccoc2c(O)c2oc(=O)ccc12` [Alloimperatorin], the “229E Inhibition rate” value stood at 0%.

As to `C[n+]1cccc(C(=O)[O-])c1` [Trigonelline (chloride)], the “229E Inhibition rate” value (229E Inhibition rate, 24 h) turned out to be 13.3%.

Consider `C[C@@]1(C(=O)O)CC[C@]2(C)CC[C@]3(C)C4=CC(=O)c5c(cc(O)c(O)c5C=O)[C@]4(C)CC[C@@]3(C)[C@@H]2C1` [Demethylzeylasteral], for which the “229E Inhibition rate” value is 6.3%.

For the molecule `CCCCCCC(=O)CCCCCC/C=C/C[C@@H](O)[C@H](O)[C@@](N)(CO)C(=O)O` [Myriocin], the “229E Inhibition rate” value amounted to 6%.

With `CC(C)CCC(=O)O` [4-Methylpentanoic acid], the “229E Inhibition rate” value was 5.6%.

`CSCCC(N)C(=O)O` (racemic) [DL-Methionine]: the “229E Inhibition rate” value is on record as 9.6%.

Consider `O=C(O)c1cc(O)c(O)c(O)c1` [Gallic acid], for which the “229E Inhibition rate” value (229E Inhibition rate, 24 h) is 39.2%.

Take `Oc1ccc2[nH]ccc2c1` [5-Hydroxyindole]: the “229E Inhibition rate” value was determined as 11.8%.

Consider `COc1c(O)cc2oc3cc4c(c(O)c3c(=O)c2c1CC=C(C)C)CCC(C)(C)O4` [3-Isomangostin], for which the “229E Inhibition rate” value came out at 11.6%.

As for `Cc1ncc(CO)c(CO)c1O` [Pyridoxine (hydrochloride)], under “229E Inhibition rate, 24 h”, the “229E Inhibition rate” value was determined as 0%.

Turning to `C[C@H](CO[C@@H]1O[C@H](CO)[C@@H](O)[C@H](O)[C@H]1O)[C@H]1CC[C@@]2(CC[C@]3(C)[C@H](CC[C@@H]4[C@@]5(C)CC[C@H](O[C@@H]6O[C@H](CO)[C@@H](O)[C@H](O)[C@H]6O[C@@H]6OC[C@@H](O)[C@H](O)[C@H]6O)[C@@](C)(CO)[C@@H]5CC[C@]43C)[C@H]2O)CO1` [Hosenkoside F], the “229E Inhibition rate” value turned out to be 11.1%.

With `COc1cc(O)c2c(c1)O[C@H](c1ccccc1)CC2=O` [Pinostrobin], the “229E Inhibition rate” value was determined as 31.9%.

As for `C/C=C(/C)C(=O)O[C@@H]1c2c(ccc3ccc(=O)oc23)OC(C)(C)[C@@H]1OC(=O)/C(C)=C\C` [(-)-Anomalin], the “229E Inhibition rate” value amounted to 51.7%.

Turning to `COc1ccc(C2CC(=O)c3c(O)cc(O)cc3O2)cc1O` (racemic) [(Rac)-Hesperetin], the “229E Inhibition rate” value was 10.6%.

For `CC(C)=CCC[C@@](O)(CO[C@@H]1O[C@H](CO)[C@@H](O)[C@H](O)[C@H]1O)[C@H]1CC[C@]2(C)[C@@H]1CC[C@@H]1[C@@]3(C=O)CC[C@H](O[C@@H]4OC[C@H](O)[C@H](O[C@@H]5OC[C@@H](O)[C@H](O)[C@H]5O)[C@H]4O[C@@H]4O[C@@H](C)[C@H](O)[C@@H](O)[C@H]4O)C(C)(C)[C@@H]3CC[C@]12C` [Gypenoside XLIX], the “229E Inhibition rate” value worked out at 12.9%.

Regarding `C[C@@H]1O[C@@H](OC[C@H]2O[C@@H](Oc3c(-c4ccc(O)cc4)oc4cc(O)cc(O)c4c3=O)[C@H](O[C@@H]3O[C@H](CO)[C@@H](O)[C@H](O)[C@H]3O)[C@@H](O)[C@@H]2O)[C@H](O)[C@H](O)[C@H]1O` [Kaempferol-3-O-(2''-O-β-D-glucopyl)-β-D-rutinoside], the “229E Inhibition rate” value is 13.6%.

Take `CC(C)C[C@@H](O)C(=O)O` [(R)-Leucic acid]: the “229E Inhibition rate” value worked out at 39%.

Consider `CCOC(=O)/C=C/c1ccc(O)cc1` [p-Coumaric Acid Ethyl Ester], for which the “229E Inhibition rate” value is 23%.

For `O=c1cc(-c2ccc(O)c(O)c2)oc2cc(O)c([C@@H]3O[C@H](CO)[C@@H](O)[C@H](O)[C@H]3O)c(O)c12` [Isoorientin], the “229E Inhibition rate” value is listed as 51.3%.

With `CC(CCC(=O)O)C(=O)O` (stereo not drawn) [2-Methylpentanedioic acid], the “229E Inhibition rate” value was found to be 38.7%.

`CCCCCCCC(=O)O` [Octanoic acid]: the “229E Inhibition rate” value is 40.1%.

Take `O=C(CCc1ccc(O)c(O)c1)NCCCNCCCCNCCCNC(=O)CCc1ccc(O)c(O)c1` [Kukoamine A]: the “229E Inhibition rate” value turned out to be 11.3%.

In the case of `COc1cc(O[C@@H]2O[C@H](CO[C@@H]3O[C@H](CO)[C@@H](O)[C@H](O)[C@H]3O)[C@@H](O)[C@H](O)[C@H]2O)c2c(O)c3c(=O)oc(C)cc3cc2c1` [Cassiaside C], the “229E Inhibition rate” value was found to be 29.7%.

For the molecule `Nc1ncnc2c1ncn2[C@H]1C[C@H](O)[C@@H](CO)O1` [2'-Deoxyadenosine monohydrate], the “229E Inhibition rate” value (229E Inhibition rate, 24 h) turned out to be 8.6%.

As for `O=c1cccccc1O` [Tropolone], the “229E Inhibition rate” value came to 5%.

As for `O=C1O[C@H]([C@@H](O)CO)C(O)=C1O[C@@H]1O[C@H](CO)[C@@H](O)[C@H](O)[C@H]1O` [2-O-β-D-Glucopyranosyl-L-ascorbic acid], the “229E Inhibition rate” value stood at 10.6%.

Take `O=C(CC(O)(CC(=O)OCc1ccc(O[C@@H]2O[C@H](CO)[C@@H](O)[C@H](O)[C@H]2O)cc1)C(=O)O)OCc1ccc(O[C@@H]2O[C@H](CO)[C@@H](O)[C@H](O)[C@H]2O)cc1` [Parishin C]: the “229E Inhibition rate” value was found to be 21.5%.

As for `COc1cc2c(cc1O)-c1c(OC)c(O)cc3c1[C@H](C2)NCC3` [Laetanine], the “229E Inhibition rate” value is on record as 6.3%.

For `CC(C)=CCC[C@@H](C)[C@H]1CC[C@H]2[C@@H]3CC=C4C[C@@H](O)CC[C@]4(C)[C@H]3CC[C@]12C` [Desmosterol], the “229E Inhibition rate” value is recorded as 29.1%.

For `CC(C)=CCc1c(O)ccc(C(=O)[C@@H]2[C@@H](c3c(O)cc(O)c4c(=O)c(CC=C(C)C)c(-c5ccc(O)cc5O)oc34)C=C(C)C[C@H]2c2ccc(O)cc2O)c1O` [Kuwanon H], the “229E Inhibition rate” value was 0%.

`CC(C)(C)CC(C)(C)c1ccc(O)cc1` [4-tert-Octylphenol]: the “229E Inhibition rate” value is on record as 5.2%.

Take `CCCCC[C@H](O)/C=C/[C@H]1C(=O)C[C@H](O)[C@@H]1C/C=C\CCCC(=O)O` [Prostaglandin D2]: the “229E Inhibition rate” value came out at 17%.

As to `CC(=O)O[C@]12CCC(C(=O)O)=CC[C@]13CC[C@H]2[C@@](C)(/C=C/C=C(\C)C(=O)O)OC3=O` [Pseudolaric Acid C2], the “229E Inhibition rate” value was found to be 7.8%.

For the molecule `O=C(/C=C/c1ccc(O)c(O)c1)O[C@@H](C(=O)O)[C@@H](OC(=O)/C=C/c1ccc(O)c(O)c1)C(=O)O` [L-Chicoric Acid], where the note is “229E Inhibition rate, 24 h”, the “229E Inhibition rate” value came to 24.1%.

`O=C1N[C@@H]2[C@@H](O)[C@@H](O)[C@H](O)[C@@H](CO)N2C1=O` [Kifunensine]: the “229E Inhibition rate” value was found to be 13.3%.

Regarding `CCCCCCCCOC(=O)c1cc(O)c(O)c(O)c1` [Octyl gallate], the “229E Inhibition rate” value is reported as 47.6%.

`CCCCCCCCCCCCCCCCCCCCCCCCC(=O)O` [Pentacosanoic acid]: the “229E Inhibition rate” value is recorded as 12.4%.

As to `O=C(O)Cn1ccnc1` [Imidazol-1-yl-acetic acid], the “229E Inhibition rate” value is recorded as 10.3%.

As to `CC(=O)c1cc2c(CO)cc(O)cc2oc1=O` [Armillarisin A], the “229E Inhibition rate” value is listed as 17.6%.

Turning to `COc1ccc(-c2cc(=O)c3c(O)cc(O[C@@H]4O[C@H](CO[C@@H]5O[C@@H](C)[C@H](O)[C@@H](O)[C@H]5O)[C@@H](O)[C@H](O)[C@H]4O)cc3o2)cc1` [Linarin], the “229E Inhibition rate” value was determined as 7.6%.

With `COc1ccc(-c2coc3cc(O[C@@H]4O[C@H](CO)[C@@H](O)[C@H](O)[C@H]4O)c(OC)c(O)c3c2=O)cc1O` [Iristectorin A], the “229E Inhibition rate” value came out at 15.7%.

As for `COc1cc2c(cc1OC)-c1cc3ccc4c(c3c[n+]1CC2)OCO4` [Epiberberine (chloride)], the “229E Inhibition rate” value was 18.2%.

As for `CC(=O)N[C@@H](Cc1ccccc1)C(=O)O` [N-Acetyl-L-phenylalanine], the “229E Inhibition rate” value was determined as 5.6%.

With `CCCCCCCC(=O)CCc1ccc(O)c(OC)c1` [Paradol], the “229E Inhibition rate” value is 25%.

For `Cc1cn([C@H]2C[C@H](O)[C@@H](COP(=O)(O)O)O2)c(=O)[nH]c1=O` [Thymidine-5'-monophosphate (disodium) salt], the “229E Inhibition rate” value came out at 15.5%.

`CC(C)(O)[C@H](O)COc1c2ccoc2cc2oc(=O)ccc12` [Oxypeucedanin hydrate]: the “229E Inhibition rate” value is 17%.

Take `CN1[C@H]2C[C@H](OC(=O)[C@H](CO)c3ccccc3)C[C@@H]1[C@@H](O)C2` [Anisodamine]: for the setting “229E Inhibition rate, 24 h”, the “229E Inhibition rate” value worked out at 10.7%.

Regarding `CC(=O)N[C@@H]1[C@@H](O)[C@H](O)[C@@H](CO)O[C@@H]1O` [N-Acetyl-D-glucosamine], the “229E Inhibition rate” value came out at 11.1%.

Take `CC(C)=CCC/C(C)=C/CC/C(C)=C/CC/C(C)=C/CC1=C(C)C(=O)c2ccccc2C1=O` [Menaquinone-4]: the “229E Inhibition rate” value is reported as 4.1%.

With `O=c1c(O)c(-c2ccc(O)c(O)c2)oc2cc(O[C@@H]3O[C@H](CO)[C@@H](O)[C@H](O)[C@H]3O)cc(O)c12` [Quercimeritrin], the “229E Inhibition rate” value is 27.7%.

With `CCCCCC(=O)CC(=O)NC1CCOC1=O` (racemic) [N-(3-Oxooctanoyl)-DL-homoserine lactone], the “229E Inhibition rate” value amounted to 12%.

In the case of `C=CCS[S+]([O-])CC=C` (stereo not drawn) [Allicin], the “229E Inhibition rate” value is reported as 20.7%.

Regarding `COc1cc([C@H]2Oc3ccc(-c4cc(=O)c5c(O)cc(O)cc5o4)cc3O[C@@H]2CO)ccc1O` (racemic) [(Rac)-Hydnocarpin], the “229E Inhibition rate” value is recorded as 0%.

In the case of `O=C(O)[C@@H]1CCN1` [L-Azetidine-2-carboxylic acid], the “229E Inhibition rate” value came out at 11.4%.

For the origin of these results see article PMC12431657, “Discovery and mechanistic insights of dibenzoylmethane as a broad spectrum inhibitor of coronavirus” (PLOS Pathogens, 2025).
